Data reported in the supplement of paper PMC12819154, “High-throughput peptide-centric local stability assay extends protein–ligand identification to membrane proteins, tissues and bacteria” (Nature Structural & Molecular Biology, 2025).
Some of the results follow. Small differences around the control level are noise.

By UniProt entry, the sequences of proteins in these tests, tags left out. Where a name states a change or a piece, a line headed by the entry shows the natural chain unless it says otherwise.
UniProt A2AHG0: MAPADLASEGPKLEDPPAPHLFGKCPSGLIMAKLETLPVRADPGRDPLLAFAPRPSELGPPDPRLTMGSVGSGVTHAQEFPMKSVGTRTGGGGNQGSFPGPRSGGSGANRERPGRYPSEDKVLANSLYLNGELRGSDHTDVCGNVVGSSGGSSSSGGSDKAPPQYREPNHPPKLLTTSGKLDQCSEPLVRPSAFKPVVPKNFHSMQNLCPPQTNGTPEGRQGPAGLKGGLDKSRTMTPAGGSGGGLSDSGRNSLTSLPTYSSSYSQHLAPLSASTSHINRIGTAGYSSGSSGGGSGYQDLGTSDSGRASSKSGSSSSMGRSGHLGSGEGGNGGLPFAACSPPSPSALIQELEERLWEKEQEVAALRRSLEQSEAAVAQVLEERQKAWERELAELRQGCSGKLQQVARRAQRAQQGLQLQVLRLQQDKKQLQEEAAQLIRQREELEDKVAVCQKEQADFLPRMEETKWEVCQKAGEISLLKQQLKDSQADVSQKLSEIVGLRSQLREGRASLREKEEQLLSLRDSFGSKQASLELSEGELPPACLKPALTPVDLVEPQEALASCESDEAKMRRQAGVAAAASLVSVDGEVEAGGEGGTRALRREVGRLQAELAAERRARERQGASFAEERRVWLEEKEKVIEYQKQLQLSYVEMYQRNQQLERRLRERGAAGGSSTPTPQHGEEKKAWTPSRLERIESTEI
UniProt A7XV04: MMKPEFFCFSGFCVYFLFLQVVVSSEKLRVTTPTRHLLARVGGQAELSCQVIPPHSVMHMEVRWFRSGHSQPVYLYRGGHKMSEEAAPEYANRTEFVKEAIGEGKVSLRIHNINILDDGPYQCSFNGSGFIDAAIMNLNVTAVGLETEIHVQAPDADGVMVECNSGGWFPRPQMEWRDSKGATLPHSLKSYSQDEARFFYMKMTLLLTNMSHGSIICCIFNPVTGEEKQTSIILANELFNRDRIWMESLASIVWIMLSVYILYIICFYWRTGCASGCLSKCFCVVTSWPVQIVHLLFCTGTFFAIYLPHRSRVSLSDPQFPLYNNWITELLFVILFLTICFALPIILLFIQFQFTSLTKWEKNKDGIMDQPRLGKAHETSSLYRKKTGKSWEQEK
UniProt A2AIL4: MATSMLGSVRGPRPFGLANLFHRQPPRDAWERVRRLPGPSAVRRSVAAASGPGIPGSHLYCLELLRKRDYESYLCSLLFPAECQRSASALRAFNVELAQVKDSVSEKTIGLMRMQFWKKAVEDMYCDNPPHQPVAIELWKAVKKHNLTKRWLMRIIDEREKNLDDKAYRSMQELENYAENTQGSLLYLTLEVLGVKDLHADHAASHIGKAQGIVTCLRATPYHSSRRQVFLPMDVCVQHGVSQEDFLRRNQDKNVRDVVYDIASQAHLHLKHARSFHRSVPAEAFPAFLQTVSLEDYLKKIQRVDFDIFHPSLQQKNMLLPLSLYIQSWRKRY
UniProt A6X942: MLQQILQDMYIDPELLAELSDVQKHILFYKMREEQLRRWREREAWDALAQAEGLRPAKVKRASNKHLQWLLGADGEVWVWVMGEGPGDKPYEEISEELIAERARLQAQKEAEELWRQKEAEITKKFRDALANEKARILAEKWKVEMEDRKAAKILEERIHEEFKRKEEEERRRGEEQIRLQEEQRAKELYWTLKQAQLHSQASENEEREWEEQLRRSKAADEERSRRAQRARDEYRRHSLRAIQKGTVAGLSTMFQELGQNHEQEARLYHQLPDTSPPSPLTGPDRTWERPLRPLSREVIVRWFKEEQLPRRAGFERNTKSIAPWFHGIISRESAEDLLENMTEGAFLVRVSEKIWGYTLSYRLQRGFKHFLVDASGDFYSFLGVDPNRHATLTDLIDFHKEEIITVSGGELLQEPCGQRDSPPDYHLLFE
UniProt A7MCT6: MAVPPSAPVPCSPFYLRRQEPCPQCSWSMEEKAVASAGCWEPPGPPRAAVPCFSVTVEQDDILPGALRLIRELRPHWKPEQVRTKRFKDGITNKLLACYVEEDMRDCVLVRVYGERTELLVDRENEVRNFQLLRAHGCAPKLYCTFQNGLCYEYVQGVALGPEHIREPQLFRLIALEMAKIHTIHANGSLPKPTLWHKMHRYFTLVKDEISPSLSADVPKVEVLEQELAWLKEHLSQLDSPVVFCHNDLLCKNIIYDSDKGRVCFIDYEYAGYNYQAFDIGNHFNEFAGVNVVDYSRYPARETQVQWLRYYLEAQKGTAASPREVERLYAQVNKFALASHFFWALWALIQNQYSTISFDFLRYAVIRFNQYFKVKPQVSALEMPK
UniProt B1AZP2: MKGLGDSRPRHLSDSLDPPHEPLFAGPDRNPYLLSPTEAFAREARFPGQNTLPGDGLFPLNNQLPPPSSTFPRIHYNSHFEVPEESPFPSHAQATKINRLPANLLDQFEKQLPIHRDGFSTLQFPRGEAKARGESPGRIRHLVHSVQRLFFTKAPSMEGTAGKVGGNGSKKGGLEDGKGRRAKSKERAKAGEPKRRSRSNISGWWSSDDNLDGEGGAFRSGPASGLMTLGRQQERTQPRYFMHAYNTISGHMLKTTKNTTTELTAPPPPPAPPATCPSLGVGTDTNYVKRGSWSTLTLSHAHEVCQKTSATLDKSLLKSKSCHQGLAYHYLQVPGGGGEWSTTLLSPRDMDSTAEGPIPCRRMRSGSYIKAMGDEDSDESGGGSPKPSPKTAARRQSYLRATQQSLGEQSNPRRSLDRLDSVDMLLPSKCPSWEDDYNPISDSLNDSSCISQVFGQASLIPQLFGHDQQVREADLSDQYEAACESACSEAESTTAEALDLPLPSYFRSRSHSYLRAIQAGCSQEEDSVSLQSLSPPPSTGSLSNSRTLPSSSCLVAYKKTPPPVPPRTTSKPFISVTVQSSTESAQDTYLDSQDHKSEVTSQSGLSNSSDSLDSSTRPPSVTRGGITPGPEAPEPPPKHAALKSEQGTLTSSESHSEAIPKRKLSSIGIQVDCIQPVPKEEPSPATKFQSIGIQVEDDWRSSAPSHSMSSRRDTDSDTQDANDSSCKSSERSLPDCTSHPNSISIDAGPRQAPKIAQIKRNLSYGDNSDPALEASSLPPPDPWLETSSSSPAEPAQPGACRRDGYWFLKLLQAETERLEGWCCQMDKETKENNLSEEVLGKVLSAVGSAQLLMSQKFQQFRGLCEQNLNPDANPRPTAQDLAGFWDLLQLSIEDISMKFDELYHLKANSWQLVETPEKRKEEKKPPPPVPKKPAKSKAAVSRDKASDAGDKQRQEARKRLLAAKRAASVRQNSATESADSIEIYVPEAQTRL
UniProt A2BE28: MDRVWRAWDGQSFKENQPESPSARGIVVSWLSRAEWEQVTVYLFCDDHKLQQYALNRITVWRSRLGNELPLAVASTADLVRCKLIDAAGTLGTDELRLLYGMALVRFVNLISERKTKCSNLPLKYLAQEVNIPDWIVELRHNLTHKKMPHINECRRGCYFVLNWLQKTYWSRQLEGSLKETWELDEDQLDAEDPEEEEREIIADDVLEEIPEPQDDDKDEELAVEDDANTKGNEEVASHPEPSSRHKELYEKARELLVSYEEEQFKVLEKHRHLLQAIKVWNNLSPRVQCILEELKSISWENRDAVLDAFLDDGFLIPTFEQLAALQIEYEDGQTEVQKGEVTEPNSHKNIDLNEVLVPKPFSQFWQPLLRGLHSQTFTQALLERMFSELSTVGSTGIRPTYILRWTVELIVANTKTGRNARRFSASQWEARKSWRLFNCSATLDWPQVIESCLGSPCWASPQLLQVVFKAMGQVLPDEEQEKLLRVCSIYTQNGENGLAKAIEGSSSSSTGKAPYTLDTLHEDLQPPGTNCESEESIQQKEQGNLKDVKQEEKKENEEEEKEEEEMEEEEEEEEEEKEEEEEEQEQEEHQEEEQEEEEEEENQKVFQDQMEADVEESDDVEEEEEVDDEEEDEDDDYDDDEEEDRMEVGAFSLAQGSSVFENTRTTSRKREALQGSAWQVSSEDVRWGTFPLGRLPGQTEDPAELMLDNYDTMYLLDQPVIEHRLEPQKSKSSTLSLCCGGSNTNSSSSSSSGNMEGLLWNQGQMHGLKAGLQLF
UniProt A2RSQ0: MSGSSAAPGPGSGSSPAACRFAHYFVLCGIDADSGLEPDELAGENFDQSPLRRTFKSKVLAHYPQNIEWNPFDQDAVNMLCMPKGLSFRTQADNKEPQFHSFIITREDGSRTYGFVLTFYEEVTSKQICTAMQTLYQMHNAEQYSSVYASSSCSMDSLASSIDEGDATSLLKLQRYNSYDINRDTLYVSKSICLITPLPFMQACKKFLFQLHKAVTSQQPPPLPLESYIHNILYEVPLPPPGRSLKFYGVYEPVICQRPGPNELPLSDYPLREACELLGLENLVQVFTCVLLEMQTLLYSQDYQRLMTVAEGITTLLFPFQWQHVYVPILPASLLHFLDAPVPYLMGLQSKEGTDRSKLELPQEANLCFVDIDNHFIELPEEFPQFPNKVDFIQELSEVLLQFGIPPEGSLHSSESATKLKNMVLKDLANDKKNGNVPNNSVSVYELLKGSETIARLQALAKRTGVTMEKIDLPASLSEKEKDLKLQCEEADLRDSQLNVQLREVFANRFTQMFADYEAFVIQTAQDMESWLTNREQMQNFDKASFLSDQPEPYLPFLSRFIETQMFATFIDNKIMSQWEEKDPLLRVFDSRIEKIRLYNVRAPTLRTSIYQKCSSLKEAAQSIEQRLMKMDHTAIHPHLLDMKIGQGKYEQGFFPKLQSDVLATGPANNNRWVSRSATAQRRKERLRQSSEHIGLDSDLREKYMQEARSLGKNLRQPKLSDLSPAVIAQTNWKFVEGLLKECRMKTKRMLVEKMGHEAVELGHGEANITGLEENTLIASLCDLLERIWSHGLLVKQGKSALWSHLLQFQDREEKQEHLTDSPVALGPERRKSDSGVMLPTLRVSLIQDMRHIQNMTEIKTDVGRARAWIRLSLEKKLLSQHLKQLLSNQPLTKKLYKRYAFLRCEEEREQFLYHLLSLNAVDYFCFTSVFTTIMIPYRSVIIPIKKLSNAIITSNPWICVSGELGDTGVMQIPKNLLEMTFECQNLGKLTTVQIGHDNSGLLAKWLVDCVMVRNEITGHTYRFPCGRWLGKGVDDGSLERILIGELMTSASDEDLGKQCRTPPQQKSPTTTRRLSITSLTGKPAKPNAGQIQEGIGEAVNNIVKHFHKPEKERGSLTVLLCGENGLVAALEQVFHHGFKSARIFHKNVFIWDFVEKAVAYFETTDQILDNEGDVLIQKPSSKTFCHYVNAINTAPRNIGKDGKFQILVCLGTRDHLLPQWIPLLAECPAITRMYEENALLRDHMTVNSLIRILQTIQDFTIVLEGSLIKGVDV
UniProt B1AXH1: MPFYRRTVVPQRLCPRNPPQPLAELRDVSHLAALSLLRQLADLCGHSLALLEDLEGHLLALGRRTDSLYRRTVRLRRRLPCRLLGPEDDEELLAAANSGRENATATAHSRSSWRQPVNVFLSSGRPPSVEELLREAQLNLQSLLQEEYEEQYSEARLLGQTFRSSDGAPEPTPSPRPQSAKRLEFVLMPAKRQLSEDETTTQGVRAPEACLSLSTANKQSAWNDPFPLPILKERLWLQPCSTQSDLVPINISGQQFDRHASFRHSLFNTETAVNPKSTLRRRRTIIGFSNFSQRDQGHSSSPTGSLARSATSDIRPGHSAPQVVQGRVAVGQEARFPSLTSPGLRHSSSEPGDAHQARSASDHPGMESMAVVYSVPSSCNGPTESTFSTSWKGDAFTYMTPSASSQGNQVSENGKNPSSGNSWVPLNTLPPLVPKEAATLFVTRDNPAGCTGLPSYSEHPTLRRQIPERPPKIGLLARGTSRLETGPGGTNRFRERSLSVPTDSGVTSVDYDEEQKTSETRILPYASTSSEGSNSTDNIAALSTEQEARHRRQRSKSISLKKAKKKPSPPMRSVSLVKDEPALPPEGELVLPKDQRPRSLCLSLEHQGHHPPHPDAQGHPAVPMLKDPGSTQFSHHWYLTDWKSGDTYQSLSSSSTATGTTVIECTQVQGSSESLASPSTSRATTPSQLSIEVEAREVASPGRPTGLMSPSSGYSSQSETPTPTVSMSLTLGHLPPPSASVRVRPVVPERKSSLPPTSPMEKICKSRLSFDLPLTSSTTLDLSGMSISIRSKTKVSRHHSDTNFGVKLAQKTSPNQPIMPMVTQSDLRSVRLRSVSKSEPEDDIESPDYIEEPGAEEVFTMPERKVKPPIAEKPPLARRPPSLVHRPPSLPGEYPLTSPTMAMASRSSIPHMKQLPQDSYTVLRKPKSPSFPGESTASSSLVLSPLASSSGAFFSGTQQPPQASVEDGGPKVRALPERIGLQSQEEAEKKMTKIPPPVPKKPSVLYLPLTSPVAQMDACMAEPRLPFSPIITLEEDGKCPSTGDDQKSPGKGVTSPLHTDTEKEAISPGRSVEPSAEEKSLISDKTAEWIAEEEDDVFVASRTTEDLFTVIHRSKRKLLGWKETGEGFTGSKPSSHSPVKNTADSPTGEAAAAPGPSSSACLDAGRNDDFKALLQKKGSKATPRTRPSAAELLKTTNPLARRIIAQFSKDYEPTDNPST

The targets below were run with CN[C@@H]1C[C@H]2O[C@@](C)([C@@H]1OC)n1c3ccccc3c3c4c(c5c6ccccc6n2c5c31)C(=O)NC4 [staurosporine] (assay: log2 fold change of tryptic peptide abundance, ligand vs vehicle (limited proteolysis) (log2 ratio); higher = more trypsin-susceptible (destabilized)). Conditions: ligand concentration: 20 uM; sample: mouse liver crude lysate; replicate design: treated separately.
“UniProt A2AHG0 (peptide sequence: LQAELAAER, peptide start residue: 607)” showed a log2 fold change of -0.303.
Target “A0A571BF63 (peptide sequence: RMKTGFEHAR, peptide start residue: 398), A0A571BF63” has a log2 fold change of -0.0515.
For “UniProt A2AAY5 (peptide sequence: NDMGLECGHK, peptide start residue: 589)”, the log2 fold change was 0.299.
Target “UniProt A7XV04 (peptide sequence: GGHKMSEEAAPEYANR, peptide start residue: 78)” has a log2 fold change of -0.291.
With “UniProt B2RRD7 (peptide sequence: LGEQMTQEAR, peptide start residue: 1128)” the log2 fold change was -0.301.
“UniProt A2RT67 (peptide sequence: KASPLHITHR, peptide start residue: 540)” showed a log2 fold change of 0.428.
Target “UniProt A6H5X4 (peptide sequence: SKACEWEER, peptide start residue: 268)” has a log2 fold change of 0.443.
“UniProt A6PWD2 (peptide sequence: LYTDMIK, peptide start residue: 1215)” gave a log2 fold change of 0.157.
“UniProt A2AIL4 (peptide sequence: VDFDIFHPSLQQK, peptide start residue: 304)” showed a log2 fold change of 0.332.
“UniProt A6X942 (peptide sequence: KFRDALANEK, peptide start residue: 125)” showed a log2 fold change of 0.296.
For “UniProt A0JNU3 (peptide sequence: RGHAAVVTMLLQR, peptide start residue: 441)”, the log2 fold change was -0.0995.
“UniProt A6H8H2 (peptide sequence: TSDSEDKLFSPVISR, peptide start residue: 1212)” gave a log2 fold change of -0.278.
“UniProt A2ALK8 (peptide sequence: NLPVYPLDIVR, peptide start residue: 865)” showed a log2 fold change of 0.432.
For “UniProt A7MCT6 (peptide sequence: ETQVQWLR, peptide start residue: 302)”, the log2 fold change was -0.206.
With “UniProt A2AQ19 (peptide sequence: FNDQDIEEIVKEKER, peptide start residue: 492)” the log2 fold change was -0.554.
“UniProt A2AM05 (peptide sequence: KSTPEKNEK, peptide start residue: 669)” was tested, and the log2 fold change was 0.0938.
“UniProt A2AHJ4 (peptide sequence: FIQTRPK, peptide start residue: 1642)” showed a log2 fold change of -0.527.
Target “UniProt B1AZP2 (peptide sequence: SEQGTLTSSESHSEAIPK, peptide start residue: 644)” has a log2 fold change of 0.337.
“UniProt B2RPV6 (peptide sequence: NQRPSYQKPSFETTR, peptide start residue: 177)” was tested, and the log2 fold change was -0.202.
“UniProt B1AZ99 (peptide sequence: DGLRDDVEDAVHK, peptide start residue: 225)” gave a log2 fold change of 0.0905.
For “UniProt A2AIV2 (peptide sequence: CHFYEILSEIKR, peptide start residue: 557)”, the log2 fold change was 0.482.
For “UniProt A2ASZ8 (peptide sequence: ITLGVQSR, peptide start residue: 462)”, the log2 fold change was -0.398.
“UniProt A6H6E2 (peptide sequence: LGQLWQDVEDQLHAQR, peptide start residue: 304)” gave a log2 fold change of 0.164.
Work on “UniProt A2BE28 (peptide sequence: ELLVSYEEEQFKVLEK, peptide start residue: 255)” yielded a log2 fold change of -0.59.
“UniProt A2A884 (peptide sequence: RPWSPSKEAGSR, peptide start residue: 1930)” showed a log2 fold change of 0.296.
“UniProt A2RSQ0 (peptide sequence: QEHLTDSPVALGPERR, peptide start residue: 816)” showed a log2 fold change of 0.471.
“UniProt A3KGS3 (peptide sequence: VVQVYRK, peptide start residue: 70)” gave a log2 fold change of -0.158.
“UniProt A6H619 (peptide sequence: TPLQRPQRPQEGDWDAEDR, peptide start residue: 1432)” showed a log2 fold change of -0.466.
Target “UniProt A2CG49 (peptide sequence: PYSSGPVGSEKPPK, peptide start residue: 2236)” has a log2 fold change of -0.656.
Work on “UniProt B1AXH1 (peptide sequence: EAATLFVTR, peptide start residue: 436)” yielded a log2 fold change of -0.448.
